Data as given in PubChem BioAssay AID743454 (Peter MacCallum Cancer Centre, 2014).
This is one part, drawn at random, of about 18,000 reagents. Of all reagents, 450 (2.5%) are marked active. 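Single biological run; no consistent viability z cut-off exists, so the class columns, not z-scores, define the calls.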

Assay: 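Search for knock-downs that restore vorinostat killing in resistant colon cancer cells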 (primary screen)
Cells: human HCT116-VR colon cancer cells, selected for vorinostat resistance
Knock-down reagent: siRNA pool against human genes, 40 nM siRNA pool
Timing: vorinostat for 24 h, read-out about 72 h after transfection
Challenge: vorinostat at 2.5 µM final
Detection: 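Cell viability by CellTiter-Fluor and caspase 3/7 activity by luminescence, each scaled to mock wells per plate, duplicates averaged, then robust z-scored over all plates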
Direction: viability robust z-score: higher = more viable cells than screen typical; caspase robust z-score: higher = more caspase 3/7 activity than screen typical
Hit rule: 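a knock-down is a hit when classed RV1 or RV2 for lowered viability, or CA1 or CA2 for caspase activation; those lethal without drug were dropped; hits were retested singly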

viability hit class | caspase hit class | viability robust z-score | caspase robust z-score | Call | gene symbol
no change | no change | -0.27 | -0.33 | inactive | RIPK2 (receptor interacting serine/threonine kinase 2)
no change | no change | -1.15 | 0.58 | inactive | GABARAPL1 (GABA type A receptor associated protein like 1)
no change | no change | -1.25 | 2.8 | inactive | NOP9 (NOP9 nucleolar protein)
no change | no change | -0.26 | -1.21 | inactive | QRFPR (pyroglutamylated RFamide peptide receptor)
no change | no change | -0.72 | 3.99 | inactive | POLR1G (RNA polymerase I subunit G)
no change | no change | 0.24 | -1.04 | inactive | RAMP3 (receptor activity modifying protein 3)
no change | no change | 1.42 | 0.15 | inactive | PTPN14 (protein tyrosine phosphatase non-receptor type 14)
no change | no change | 0.77 | -0.52 | inactive | SIRPD (signal regulatory protein delta)
no change | no change | 0.06 | -0.29 | inactive | PAN3 (poly(A) specific ribonuclease subunit PAN3)
no change | no change | 0.2 | 0.08 | inactive | RLBP1 (retinaldehyde binding protein 1)
no change | no change | -0.55 | 0.31 | inactive | ACACA (acetyl-CoA carboxylase alpha)
no change | no change | -0.28 | 0.12 | inactive | KRTAP19-4 (keratin associated protein 19-4)
no change | no change | -1.66 | 0.06 | inactive | GABRQ (gamma-aminobutyric acid type A receptor subunit theta)
no change | no change | -0.76 | 3.62 | inactive | ESPN (espin)
no change | no change | 0.15 | -1.21 | inactive | MRGPRD (MAS related GPR family member D)
no change | no change | 0.36 | -0.37 | inactive | SUB1 (SUB1 regulator of transcription)
no change | no change | -0.38 | 1.39 | inactive | RBM43 (RNA binding motif protein 43)
no change | no change | -0.15 | 0.78 | inactive | KRTAP5-4 (keratin associated protein 5-4)
no change | no change | 0.34 | -0.2 | inactive | FLNC (filamin C)
no change | no change | -0.27 | -0.11 | inactive | EDIL3 (EGF like and discoidin domains 3)
no change | no change | -0.74 | 1.5 | inactive | ATP6AP1L (ATPase H+ transporting accessory protein 1 like (pseudogene))
no change | no change | -4.64 | 1.5 | inactive | NSA2 (NSA2 ribosome biogenesis factor)
no change | no change | -0.03 | -0.32 | inactive | TRAT1 (T cell receptor associated transmembrane adaptor 1)
no change | no change | -0.18 | 0.4 | inactive | UGT1A4 (UDP glucuronosyltransferase family 1 member A4)
no change | no change | -0.19 | 0.6 | inactive | WDR6 (WD repeat domain 6)
no change | no change | 0.26 | 0.52 | inactive | FAM151A (family with sequence similarity 151 member A)
no change | no change | -2.01 | 2.49 | inactive | ADAM8 (ADAM metallopeptidase domain 8)
no change | no change | 0.64 | -0.43 | inactive | MAGEB3 (MAGE family member B3)
no change | no change | 1.19 | 0.17 | inactive | SGMS2 (sphingomyelin synthase 2)
no change | no change | -0.48 | -0.38 | inactive | MKI67 (marker of proliferation Ki-67)
no change | no change | 1.4 | -0.94 | inactive | PLXNA4 (plexin A4)
no change | no change | 0.24 | -0.76 | inactive | SP3 (Sp3 transcription factor)
no change | no change | 0 | 1.82 | inactive | DAB2IP (DAB2 interacting protein)
no change | no change | -0.12 | 1.23 | inactive | TMEM59L (transmembrane protein 59 like)
no change | no change | -3.49 | -1.34 | inactive | RPL10A (ribosomal protein L10a)
no change | no change | 0.29 | 3.05 | inactive | MOCOS (molybdenum cofactor sulfurase)
no change | no change | -0.31 | 0.2 | inactive | MNAT1 (MNAT1 component of CDK activating kinase)
no change | no change | 1.01 | 0.44 | inactive | EPHB1 (EPH receptor B1)
no change | no change | 0.38 | 0 | inactive | KRT75 (keratin 75)

4 successive records from above, for reference:
viability hit class | caspase hit class | viability robust z-score | caspase robust z-score | Call | gene symbol
no change | no change | -0.18 | 0.4 | inactive | UGT1A4 (UDP glucuronosyltransferase family 1 member A4)
no change | no change | -0.19 | 0.6 | inactive | WDR6 (WD repeat domain 6)
no change | no change | 0.26 | 0.52 | inactive | FAM151A (family with sequence similarity 151 member A)
no change | no change | -2.01 | 2.49 | inactive | ADAM8 (ADAM metallopeptidase domain 8)
